Data from publication doi:10.1101/414367.
No constants are given. Whether binding was seen depends on the method and setting. In cells and extracts the contact can be indirect. A yes stands for co-enrichment or nearness to the bait. Other partners may have been found. A no says only that the protein was not detected with the bait. Tags and fused reporters may be left off the sequences shown.

B1: Sec27 (protein, UniProt P41811 1-889)
chain: MKLDIKKTFSNRSDRVKGIDFHPTEPWVLTTLYSGRVELWNYETQVEVRSIQVTETPVRAGKFIARKNWIIVGSDDFRIRVFNYNTGEKVVDFEAHPDYIRSIAVHPTKPYVLSGSDDLTVKLWNWENNWALEQTFEGHEHFVMCVAFNPKDPSTFASGCLDRTVKVWSLGQSTPNFTLTTGQERGVNYVDYYPLPDKPYMITASDDLTIKIWDYQTKSCVATLEGHMSNVSFAVFHPTLPIIISGSEDGTLKIWNSSTYKVEKTLNVGLERSWCIATHPTGRKNYIASGFDNGFTVLSLGNDEPTLSLDPVGKLVWSGGKNAAASDIFTAVIRGNEEVEQDEPLSLQTKELGSVDVFPQSLAHSPNGRFVTVVGDGEYVIYTALAWRNKAFGKCQDFVWGPDSNSYALIDETGQIKYYKNFKEVTSWSVPMHSAIDRLFSGALLGVKSDGFVYFFDWDNGTLVRRIDVNAKDVIWSDNGELVMIVNTNSNGDEASGYTLLFNKDAYLEAANNGNIDDSEGVDEAFDVLYELSESITSGKWVGDVFIFTTATNRLNYFVGGKTYNLAHYTKEMYLLGYLARDNKVYLADREVHVYGYEISLEVLEFQTLTLRGEIEEAIENVLPNVEGKDSLTKIARFLEGQEYYEEALNISPDQDQKFELALKVGQLTLARDLLTDESAEMKWRALGDASLQRFNFKLAVEAFTNAHDLESLFLLHSSFNNKEGLVTLAKDAERAGKFNLAFNAYWIAGDIQGAKDLLIKSQRFSEAAFLGSTYGLGDDAVNDIVTKWKENLILNGKNTVSERVCGAEGLPGSSSSGDAQPLIDLDSTPAPEQADENKEAEVEDSEFKESNSEAVEAEKKEEEAPQQQQSEQQPEQGEAVPEPVEEES
B2: Sec28 (protein, UniProt P40509 1-296)
chain: MDYFNIKQNYYTGNFVQCLQEIEKFSKVTDNTLLFYKAKTLLALGQYQSQDPTSKLGKVLDLYVQFLDTKNIEELENLLKDKQNSPYELYLLATAQAILGDLDKSLETCVEGIDNDEAEGTTELLLLAIEVALLNNNVSTASTIFDNYTNAIEDTVSGDNEMILNLAESYIKFATNKETATSNFYYYEELSQTFPTWKTQLGLLNLHLQQRNIAEAQGIVELLLSDYYSVEQKENAVLYKPTFLANQITLALMQGLDTEDLTNQLVKLDHEHAFIKHHQEIDAKFDELVRKYDTSN
B3: Sec33 (protein, UniProt P53622 1-1201)
chain: MKMLTKFESKSTRAKGIAFHPSRPWVLVALFSSTIQLWDYRMGTLLHRFEDHEGPVRGLDFHPTQPIFVSAGDDYTIKVWSLDTNKCLYTLTGHLDYVRTVFFHRELPWIISASDDQTIRIWNWQNRKEIACLTGHNHFVMCAQFHPTDDLIVSASLDETIRIWDISGLRKRHSAPGTSSFEEQMSAQQNLLDGSLGDCVVKFILEGHTRGVNWASFHPTLPLIVSGSDDRQVKLWRMSATKAWEVDTCRGHTNNVDSVIFHPHQNLIISVGEDKTLRVWDLDKRTPVKQFKRENDRFWLIAAHPHINLFGAAHDSGIMVFKLDRERPCSFIHQNQLFFVNAEKQIQSFNFQKRVASLPYASLKGIGQPWDAFRSISYNPSQHSVLVNEANGKFALVILPKQPVGAVEPTSVTQDTGNFATFVGRNRFVVYNKNTESVEVRSLENKVTRNIKVEETVRTIVAAGPGSVLVIHPREVILYDVQQGKKVSQLAVKNVKYVSWSLDGQYVALMSKHTITLATKKLELINSMHETIRIKSAAWDETGVLIYSTLNHIRYSLLNGDRGIIKTLEKTLYITKVQGKLVYCLNREGEIEILTIDPTEYRFKKALVNKNFPEVLRLIKDSNLVGQNIISYLQKSGYPEIALQFVQDPHIRFDLALEYGNLDVALDEAKKLNDSSTWERLIQEALAQGNASLAEMIYQTQHSFDKLSFLYLVTGDVNKLSKMQNIAQTREDFGSMLLNTFYNNSTKERSSIFAEGGSLPLAYAVAKANGDEAAASAFLEQAEVDEQDVTLPDQMDASNFVQRPVISKPLEKWPLKEAELSYFEKAVLGQIDDLTIDDETPAVNTTQEQEEPLGEENFNDEDIGEDEGAWDLGDEDLDVGEELPEEVEQGEITSPAQEVETAIWIKNSKLPAVLVAAGAFDAAVQALSKQVGVVKLEPLKKYFTNIYEGCRTYIPSTPCELPAQLGYVRAYDDTVSEDQILPYVPGLDVVNEKMNEGYKNFKLNKPDIAIECFREAIYRITLLMVDDAEDEKLAHKILETAREYILGLSIELERRSLKEGNTVRMLELAAYFTKAKLSPIHRTNALQVAMSQHFKHKNFLQASYFAGEFLKIISSGPRAEQARKIKNKADSMASDAIPIDFDPYAKFDICAATYKPIYEDTPSVSDPLTGSKYVITEKDKIDRIAMISKIGAPASGLRIRV
B4: Vps27 (protein, UniProt P40343 1-622)
chain: MSVSTPSELDALIEQATSESIPNGDLDLPIALEISDVLRSRRVNPKDSMRCIKKRILNTADNPNTQLSSWKLTNICVKNGGTPFIKEICSREFMDTMEHVILREDSNEELSELVKTILYELYVAFKNDSQLNYVAKVYDKLISRGIKFPEKLTLSNSPTAMFDSKTPADWIDSDACMICSKKFSLLNRKHHCRSCGGVFCQEHSSNSIPLPDLGIYEPVRVCDSCFEDYDLKRHDDSKKSKKHRHKRKKDRDYSTPEDEEELIRKAIELSLKESRNSASSEPIVPVVESKNEVKRQEIEEEEDPDLKAAIQESLREAEEAKLRSERQKASRQMQPQQPSPQPQPIHSVDLSDEEKDSIYMFASLVEKMKSRPLNEILEDSKLQNLAQRVFASKARLNYALNDKAQKYNTLIEMNGKISEIMNIYDRLLEQQLQSINLSQQYTLPQVPSDPYNYLTENVQNPAESYQTPPLQQLSSHQYKPQQDVSRQQSVKANSSPTTNIDHLKTIDVTPHAQQKPQSHVELAPSDPPYPKEEAEDEGTQAVQDEESSTQESRERPYPVETENGETSINKRPQGITRYDFPTVPARKFVQPESTVPLPASSSEIPIKEERPPSPQEELLIEL

target: T1, Cex1-HA (S. cerevisiae) (UniProt Q12453); assay: affinity purification with mass spectrometry
T1 sequence: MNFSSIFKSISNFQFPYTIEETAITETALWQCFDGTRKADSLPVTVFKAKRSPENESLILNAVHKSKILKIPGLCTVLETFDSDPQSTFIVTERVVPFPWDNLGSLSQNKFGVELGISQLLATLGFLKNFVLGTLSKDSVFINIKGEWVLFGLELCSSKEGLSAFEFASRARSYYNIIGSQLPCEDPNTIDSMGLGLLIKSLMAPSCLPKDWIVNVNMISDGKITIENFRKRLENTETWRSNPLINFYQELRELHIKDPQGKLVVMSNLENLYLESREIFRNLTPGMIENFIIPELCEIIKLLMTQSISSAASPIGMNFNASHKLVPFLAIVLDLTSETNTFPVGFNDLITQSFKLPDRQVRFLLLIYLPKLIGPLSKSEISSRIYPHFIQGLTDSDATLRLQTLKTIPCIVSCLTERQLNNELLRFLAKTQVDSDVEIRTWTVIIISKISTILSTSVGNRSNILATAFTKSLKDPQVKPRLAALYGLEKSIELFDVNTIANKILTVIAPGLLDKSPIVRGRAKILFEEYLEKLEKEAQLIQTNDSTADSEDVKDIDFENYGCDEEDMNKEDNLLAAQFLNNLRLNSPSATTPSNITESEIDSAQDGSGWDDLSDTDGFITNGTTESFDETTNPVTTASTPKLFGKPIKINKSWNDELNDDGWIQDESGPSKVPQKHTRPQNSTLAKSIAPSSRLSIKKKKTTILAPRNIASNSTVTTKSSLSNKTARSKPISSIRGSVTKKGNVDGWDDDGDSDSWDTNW

Binder	binding
B1	binds
B2	binds
B3	binds
B4	no binding
